# Results as given in PubChem BioAssay AID504467 (National Center for Advancing Translational Sciences (NCATS), 2011).
# Out of some 330,000 compounds screened, about 7,700 (2.3%) were called active. The shares of active, inactive and inconclusive entries below differ from those in the screen. Calls come from the whole dose curve; as a rule, active = well fitted inhibition curve with a large enough effect; inconclusive = small, poorly fitted or top-dose-only effect, or effect the other way; inactive = flat fitted curve, though single readings scatter. Where the call is inconclusive, the potency comes from a doubtful curve fit.
# Test: qHTS screen for small molecules that inhibit ELG1-dependent DNA repair in human embryonic kidney (HEK293T) cells expressing luciferase-tagged ELG1; note: nearly all actives have a fitted effect of over 55% in size
# Details: HEK293T ELG1-luciferase reporter, luminescence, 16 h, DNA damage induced by 5-fluorouridine; series mostly up to 46.1 µM
# Summary of the method: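 HEK293T cells expressing luciferase-tagged ELG1 (2,000/well) received 5-Fluorouridine plus compound or DMSO for 16 hr at 37 °C. Luciferase was read by ONE-Glo luminescence after 30 min at room temperature.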
# Potency is the fitted concentration of half-maximal effect.
row,SMILES,Potency
1,O=C(CN1CCN(c2nc(-c3ccccc3)cs2)CC1)NNC(=O)c1ccc(Br)cc1,"inconclusive: 16.4 µM [inhibitor, partial curve, poor fit]"
2,CCNC(=S)NNC(=O)c1cc(-c2cccc(OCC)c2)nc2ccccc12,"inconclusive: 18.4 µM [activator, partial curve]"
3,Cc1ccc(NC(=O)N2CCCCCC2)cc1C,"inconclusive: 11.6 µM [activator, partial curve]"
4,O=C(NC1CCCCCCC1)c1ccc2c(c1)N(Cc1ccc(F)cc1)C(=O)CS2=O (stereo not drawn),"inconclusive: 16.4 µM [activator, partial curve, poor fit]"
5,ClC1(Cl)CC1CSc1nnc(-c2ccncc2)o1 (stereo not drawn),"inconclusive: 14.6 µM [inhibitor, partial curve, poor fit]"
6,Cc1csc2ncc(C(=O)Nc3ccc4c(c3)OCCO4)c(=O)n12,"inconclusive: 2.06 µM [activator, full curve]"
7,Cc1ccccc1Cn1ccc(NC(=O)CCSc2nc(-c3ccco3)cc(C(F)(F)F)n2)n1,"inconclusive: 13 µM [inhibitor, partial curve, poor fit]"
8,CCCN1CN(Cc2ccco2)c2nc3ccccc3n2C1,"inconclusive: 29.1 µM [activator, single point]"
9,CCC(c1nnnn1C1CCCC1)N1CCN(Cc2ccccc2)CC1 (stereo not drawn),inactive
10,O=C(/C=C/c1ccco1)NC(=S)Nc1ccc(C(=O)O)cc1,"inconclusive: 29.1 µM [activator, single point]"
11,N#Cc1c(-c2ccc(F)cc2)ccnc1N1CCOCC1,"inconclusive: 20.6 µM [activator, partial curve, poor fit]"
12,CCOC(=O)C1(CCc2ccccc2)CCN(C(=O)c2occc2C)CC1,"inconclusive: 16.4 µM [inhibitor, partial curve]"
13,COc1ccc2cc(-c3nc4ccccc4n3C)c(=O)oc2c1,"inconclusive: 7.31 µM [activator, partial curve]"
14,Cc1ccnc(NCc2cccc3ccccc23)c1,inactive
15,CC1CN(C(=O)/C=C/c2ccc([N+](=O)[O-])s2)CC(C)O1 (stereo not drawn),"inconclusive: 29.1 µM [inhibitor, single point]"
16,COc1ccc(-c2csc(Nc3ncccc3C)n2)cc1OC,"inconclusive: 29.1 µM [inhibitor, single point]"
17,O=S(=O)(c1ccc(N2CCN(S(=O)(=O)c3ccccc3)CC2)nc1)N1CCCC1,"inconclusive: 6.51 µM [inhibitor, single point]"
18,CC1(C)C2C/C(=N\O)C(C)(/[N+]([O-])=C/c3cccc([N+](=O)[O-])c3)CC21 (stereo not drawn),"inconclusive: 23.1 µM [activator, single point]"
19,O=C(CSc1nnc(-c2cccnc2)n1Cc1ccco1)Nc1cccc(O)c1,inactive
20,Cc1ccc(C#N)c(SCc2nnc(-c3ccc(Cl)cc3)o2)n1,"inconclusive: 0.231 µM [activator, full curve, poor fit]"
21,CCN(CC)CCCNC(=O)N[C@@H](Cc1ccccc1)C(=O)O,"inconclusive: 4.61 µM [inhibitor, single point]"
22,CN(C(=O)COc1ccccc1C(=O)NCCc1ccccc1)c1ccccc1,inactive

row,SMILES,Potency
1,O=C1c2ccccc2C(=O)C1c1ccc(Br)cc1,"inconclusive: 9.2 µM [activator, partial curve]"
2,CCOC(=O)c1ccc(CSc2nnc(N)s2)cc1,"inconclusive: 18.4 µM [activator, partial curve]"
3,CC1CC(C)CN(S(=O)(=O)c2ccc(C(=O)NN3CCOCC3)cc2)C1 (stereo not drawn),inactive
4,COc1ccc(C(C(=O)NCc2ccccc2)N(Cc2cccs2)C(=O)c2cnccn2)cc1 (stereo not drawn),"inconclusive: 16.4 µM [inhibitor, single point]"
5,Cc1cccc2sc(NC(=O)C3CCN(C(=O)c4ccco4)CC3)nc12,active: 13 µM
6,COc1ccc(CC(=O)Nc2c(C(=O)N3CCN(c4ccccc4)CC3)oc3ccccc23)cc1OC,"inconclusive: 20.6 µM [inhibitor, partial curve]"
7,O=C(COc1ccc2c3c(c(=O)oc2c1)CCC3)NCCCN1CCCC1=O,"inconclusive: 29.1 µM [activator, single point]"
8,COc1cc(C(=O)NNC(=O)CN2C(=O)NC(C)(c3ccc(C)cc3)C2=O)cc(OC)c1OC (stereo not drawn),inactive
9,COc1cccc(-c2nnc(SCc3ccc(C#N)cc3)n2Cc2ccco2)c1,"inconclusive: 25.9 µM [inhibitor, single point]"
10,O=C(NC(=S)NCCO)c1cn(-c2ccccc2)nc1-c1ccccc1,"inconclusive: 23.1 µM [inhibitor, single point]"
11,O=C(COC(=O)c1ccco1)NCc1ccccc1Cl,inactive
12,COc1ccccc1OCc1ccc(C(=O)Nc2ccncc2)o1,"inconclusive: 20.6 µM [inhibitor, partial curve]"
13,COc1ccc2cc(C(=O)C3CCCN(C(=O)c4csnn4)C3)ccc2c1 (stereo not drawn),"inconclusive: 20.6 µM [inhibitor, single point]"
14,COc1ccc(NC(=S)NNC(=O)c2ccccc2OC(F)F)cc1,inactive
15,O=C(Nc1ccc(C(F)(F)F)cc1)c1ccc2nc[nH]c2c1,"inconclusive: 25.9 µM [activator, single point]"
16,COc1cc(/C=C2\C(=O)N(CCC#N)N=C2C)ccc1OCC(=O)Nc1ccccc1,"inconclusive: 23.1 µM [activator, partial curve]"
17,Cc1onc(-c2ccccc2Cl)c1C(=O)NCC1CCCO1 (stereo not drawn),"inconclusive: 18.4 µM [activator, single point]"
18,COc1ccc(C(CC(=O)N2CCCCC2)NC(=O)C(F)(F)F)cc1 (stereo not drawn),inactive
19,COc1ccc2c(c1)c1nc3n(c(=O)c1n2CC(=O)Nc1cc(C)[nH]n1)CCS3,"inconclusive: 18.3 µM [inhibitor, single point]"
20,CCN(CC)C(=O)c1ccc2c(=O)n(CCOC)c(=S)[nH]c2c1,"inconclusive: 5.17 µM [inhibitor, partial curve, poor fit]"
21,O=C1c2ccccc2C(=O)N1CCc1csc(-c2ccccc2)n1,"inconclusive: 18.4 µM [activator, partial curve, poor fit]"

# A draw from above in order of SMILES length, low to high:
row,SMILES,Potency
11,O=C(COC(=O)c1ccco1)NCc1ccccc1Cl,inactive
17,Cc1onc(-c2ccccc2Cl)c1C(=O)NCC1CCCO1 (stereo not drawn),"inconclusive: 18.4 µM [activator, single point]"
15,O=C(Nc1ccc(C(F)(F)F)cc1)c1ccc2nc[nH]c2c1,"inconclusive: 25.9 µM [activator, single point]"
10,O=C(NC(=S)NCCO)c1cn(-c2ccccc2)nc1-c1ccccc1,"inconclusive: 23.1 µM [inhibitor, single point]"
5,Cc1cccc2sc(NC(=O)C3CCN(C(=O)c4ccco4)CC3)nc12,active: 13 µM
13,COc1ccc2cc(C(=O)C3CCCN(C(=O)c4csnn4)C3)ccc2c1 (stereo not drawn),"inconclusive: 20.6 µM [inhibitor, single point]"
3,CC1CC(C)CN(S(=O)(=O)c2ccc(C(=O)NN3CCOCC3)cc2)C1 (stereo not drawn),inactive
16,COc1cc(/C=C2\C(=O)N(CCC#N)N=C2C)ccc1OCC(=O)Nc1ccccc1,"inconclusive: 23.1 µM [activator, partial curve]"
